PubChem BioAssay AID652243 | Drosophila RNAi Screening Center | 2013
The screen tested about 24,000 reagents; this is a random part of those with a known target gene and a result. Of all reagents, 246 (1%) are marked active. 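Plates not normalised; calls are printed but the firefly/Renilla ratio behind them is not deposited; fold cut for lowering reported inconsistently.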 Raw values are not corrected between plates. The record does not give: the amount of reagent.

Screen: 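Fly genes required for human androgen receptor driven transcription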 (primary screen)
Cell system: Drosophila S2R+ cells
Knock-down reagent: long dsRNA against Drosophila genes
Duration: 72 h (48 h, then 24 h hormone)
Challenge: synthetic androgen R1881 at 10 nM for 24 h
Measurement: 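Firefly light from an androgen-responsive reporter and Renilla control light per well, raw and unnormalised, for each of two replicates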
Direction: firefly reporter light: higher = more light from androgen-responsive reporter; Renilla control light: higher = more constitutive control signal (cell number, transfection)
Rule for the call: 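Hit when the log firefly-to-Renilla ratio dropped or increased by a fixed fold versus the mean of GFP or LacZ controls across duplicate plates; lowering cut given as 1.5 and as 3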
Meaning of the calls: active = hit: reporter lowered or raised; inactive = no hit

Against CG33233 [DRSC08239], the entry reads firefly reporter light, replicate 1 = 1.34e5; firefly reporter light, replicate 2 = 94529; Renilla control light, replicate 1 = 9.56e5; Renilla control light, replicate 2 = 1.33e6; inactive.
For CG14297 [DRSC14776], the entry reads firefly reporter light, replicate 1 = 2.05e5; firefly reporter light, replicate 2 = 1.83e5; Renilla control light, replicate 1 = 3.21e6; Renilla control light, replicate 2 = 3.01e6; inactive.
CG14297 [DRSC36939] gave inactive.
stck [DRSC17070] scored firefly reporter light, replicate 1 = 52677; firefly reporter light, replicate 2 = 59224; Renilla control light, replicate 1 = 1.68e6; Renilla control light, replicate 2 = 1.51e6; inactive.
Against MED20 [DRSC03463], the values are firefly reporter light, replicate 1 = 1.51e5; firefly reporter light, replicate 2 = 1.52e5; Renilla control light, replicate 1 = 1.23e6; Renilla control light, replicate 2 = 1.19e6; inactive.
With knock-down of CG11791 [DRSC14391] the results were firefly reporter light, replicate 1 = 43275; firefly reporter light, replicate 2 = 54056; Renilla control light, replicate 1 = 5.99e5; Renilla control light, replicate 2 = 8.14e5; inactive.
With knock-down of CG11791 [DRSC29499] the results were firefly reporter light, replicate 1 = 4.69e5; firefly reporter light, replicate 2 = 4.14e5; Renilla control light, replicate 1 = 6.92e5; Renilla control light, replicate 2 = 6.92e5; inactive.
CG32163 [DRSC09442] gave firefly reporter light, replicate 1 = 6.46e5; firefly reporter light, replicate 2 = 6.16e5; Renilla control light, replicate 1 = 2.69e6; Renilla control light, replicate 2 = 1.86e6; inactive.
After knock-down of CG32163 [DRSC21888], the record shows firefly reporter light, replicate 1 = 9.44e5; firefly reporter light, replicate 2 = 8.04e5; Renilla control light, replicate 1 = 1.32e6; Renilla control light, replicate 2 = 9.48e5; inactive.
Silencing of CG32163 [DRSC28736] resulted in: firefly reporter light, replicate 1 = 4.88e5; firefly reporter light, replicate 2 = 4.59e5; Renilla control light, replicate 1 = 1.05e6; Renilla control light, replicate 2 = 1.09e6; inactive.
nkt [DRSC10144] gave firefly reporter light, replicate 1 = 2.87e5; firefly reporter light, replicate 2 = 2.94e5; Renilla control light, replicate 1 = 2.35e6; Renilla control light, replicate 2 = 2.49e6; inactive.
After knock-down of ATP8A [DRSC05421], the record shows firefly reporter light, replicate 1 = 1.53e5; firefly reporter light, replicate 2 = 2.12e5; Renilla control light, replicate 1 = 4.04e5; Renilla control light, replicate 2 = 4.51e5; inactive.
Depletion of ATP8A [DRSC06643] gave: firefly reporter light, replicate 1 = 6.12e5; firefly reporter light, replicate 2 = 3.49e5; Renilla control light, replicate 1 = 1.78e6; Renilla control light, replicate 2 = 1.18e6; inactive.
With knock-down of ATP8A [DRSC06644], the screen gave firefly reporter light, replicate 1 = 65376; firefly reporter light, replicate 2 = 98060; Renilla control light, replicate 1 = 7.30e5; Renilla control light, replicate 2 = 7.30e5; inactive.
ACC [DRSC06059] scored firefly reporter light, replicate 1 = 63055; firefly reporter light, replicate 2 = 64298; Renilla control light, replicate 1 = 1.80e5; Renilla control light, replicate 2 = 1.80e5; inactive.
After knock-down of ACC [DRSC07249], the screen gave firefly reporter light, replicate 1 = 5.19e5; firefly reporter light, replicate 2 = 3.53e5; Renilla control light, replicate 1 = 1.17e6; Renilla control light, replicate 2 = 7.65e5; inactive.
After knock-down of CG12885 [DRSC14572] the results were firefly reporter light, replicate 1 = 80010; firefly reporter light, replicate 2 = 74521; Renilla control light, replicate 1 = 1.37e6; Renilla control light, replicate 2 = 2.55e6; inactive.
Depletion of CG12885 [DRSC25241] resulted in: firefly reporter light, replicate 1 = 8.20e5; firefly reporter light, replicate 2 = 6.50e5; Renilla control light, replicate 1 = 1.33e6; Renilla control light, replicate 2 = 1.38e6; inactive.
With knock-down of CG1024 [DRSC12496], the screen gave firefly reporter light, replicate 1 = 60661; firefly reporter light, replicate 2 = 55180; Renilla control light, replicate 1 = 9.80e5; Renilla control light, replicate 2 = 1.56e6; inactive.
IleRS [DRSC11667] gave firefly reporter light, replicate 1 = 45328; firefly reporter light, replicate 2 = 82481; Renilla control light, replicate 1 = 4.16e5; Renilla control light, replicate 2 = 4.76e5; inactive.
Against CG31265 [DRSC15745], the values are firefly reporter light, replicate 1 = 96041; firefly reporter light, replicate 2 = 95149; Renilla control light, replicate 1 = 1.44e6; Renilla control light, replicate 2 = 1.35e6; inactive.
After knock-down of CG31265 [DRSC28592] the results were firefly reporter light, replicate 1 = 5.58e5; firefly reporter light, replicate 2 = 5.11e5; Renilla control light, replicate 1 = 1.64e6; Renilla control light, replicate 2 = 1.60e6; inactive.

Look-ups from the entries so far.
CG1024 [DRSC12496], firefly reporter light, replicate 2: 55180
For “firefly reporter light, replicate 1”, CG11791 [DRSC14391] shows 43275
Result for CG31265 [DRSC28592] in “activity call”: inactive
